Measured values published in article doi:10.1101/2021.01.15.426901.
Results are given in words; binding and its absence hold for the method and conditions named. Binding seen in cells or lysates may run through a third protein. Some results given as binding are weak or reduced against the parent protein; the word gives no strength.

Chains of the proteins cited; added tags and fusions are not shown.
UniProt P70288: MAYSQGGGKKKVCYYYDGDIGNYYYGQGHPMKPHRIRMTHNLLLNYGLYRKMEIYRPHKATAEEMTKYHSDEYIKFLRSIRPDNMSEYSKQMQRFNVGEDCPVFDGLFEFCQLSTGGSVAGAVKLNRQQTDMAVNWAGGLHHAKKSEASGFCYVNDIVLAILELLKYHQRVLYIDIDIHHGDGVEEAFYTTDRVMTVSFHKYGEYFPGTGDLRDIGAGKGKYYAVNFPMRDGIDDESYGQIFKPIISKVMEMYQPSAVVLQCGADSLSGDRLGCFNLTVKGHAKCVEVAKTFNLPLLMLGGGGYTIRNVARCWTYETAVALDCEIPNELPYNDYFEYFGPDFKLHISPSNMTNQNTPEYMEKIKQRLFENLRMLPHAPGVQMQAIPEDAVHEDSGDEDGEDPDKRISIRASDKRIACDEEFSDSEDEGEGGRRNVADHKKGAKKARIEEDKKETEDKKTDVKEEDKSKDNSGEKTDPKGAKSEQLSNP
UniProt O09106: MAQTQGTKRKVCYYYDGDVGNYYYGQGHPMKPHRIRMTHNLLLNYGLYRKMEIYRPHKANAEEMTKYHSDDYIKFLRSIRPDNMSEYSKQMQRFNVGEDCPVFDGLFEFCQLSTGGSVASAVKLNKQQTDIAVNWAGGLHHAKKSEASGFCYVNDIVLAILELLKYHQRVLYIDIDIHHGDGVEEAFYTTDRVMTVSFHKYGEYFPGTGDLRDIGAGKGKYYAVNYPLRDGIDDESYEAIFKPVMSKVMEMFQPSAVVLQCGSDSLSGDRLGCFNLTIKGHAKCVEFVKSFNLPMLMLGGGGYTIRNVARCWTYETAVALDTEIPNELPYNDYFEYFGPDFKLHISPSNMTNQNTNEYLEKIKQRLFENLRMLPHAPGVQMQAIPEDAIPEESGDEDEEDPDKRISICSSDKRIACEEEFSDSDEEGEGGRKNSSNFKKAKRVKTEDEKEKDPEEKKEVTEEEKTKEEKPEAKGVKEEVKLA

T1: ZFP541 (mouse (endogenous in testis)) (UniProt Q0GGX2)
T1 sequence: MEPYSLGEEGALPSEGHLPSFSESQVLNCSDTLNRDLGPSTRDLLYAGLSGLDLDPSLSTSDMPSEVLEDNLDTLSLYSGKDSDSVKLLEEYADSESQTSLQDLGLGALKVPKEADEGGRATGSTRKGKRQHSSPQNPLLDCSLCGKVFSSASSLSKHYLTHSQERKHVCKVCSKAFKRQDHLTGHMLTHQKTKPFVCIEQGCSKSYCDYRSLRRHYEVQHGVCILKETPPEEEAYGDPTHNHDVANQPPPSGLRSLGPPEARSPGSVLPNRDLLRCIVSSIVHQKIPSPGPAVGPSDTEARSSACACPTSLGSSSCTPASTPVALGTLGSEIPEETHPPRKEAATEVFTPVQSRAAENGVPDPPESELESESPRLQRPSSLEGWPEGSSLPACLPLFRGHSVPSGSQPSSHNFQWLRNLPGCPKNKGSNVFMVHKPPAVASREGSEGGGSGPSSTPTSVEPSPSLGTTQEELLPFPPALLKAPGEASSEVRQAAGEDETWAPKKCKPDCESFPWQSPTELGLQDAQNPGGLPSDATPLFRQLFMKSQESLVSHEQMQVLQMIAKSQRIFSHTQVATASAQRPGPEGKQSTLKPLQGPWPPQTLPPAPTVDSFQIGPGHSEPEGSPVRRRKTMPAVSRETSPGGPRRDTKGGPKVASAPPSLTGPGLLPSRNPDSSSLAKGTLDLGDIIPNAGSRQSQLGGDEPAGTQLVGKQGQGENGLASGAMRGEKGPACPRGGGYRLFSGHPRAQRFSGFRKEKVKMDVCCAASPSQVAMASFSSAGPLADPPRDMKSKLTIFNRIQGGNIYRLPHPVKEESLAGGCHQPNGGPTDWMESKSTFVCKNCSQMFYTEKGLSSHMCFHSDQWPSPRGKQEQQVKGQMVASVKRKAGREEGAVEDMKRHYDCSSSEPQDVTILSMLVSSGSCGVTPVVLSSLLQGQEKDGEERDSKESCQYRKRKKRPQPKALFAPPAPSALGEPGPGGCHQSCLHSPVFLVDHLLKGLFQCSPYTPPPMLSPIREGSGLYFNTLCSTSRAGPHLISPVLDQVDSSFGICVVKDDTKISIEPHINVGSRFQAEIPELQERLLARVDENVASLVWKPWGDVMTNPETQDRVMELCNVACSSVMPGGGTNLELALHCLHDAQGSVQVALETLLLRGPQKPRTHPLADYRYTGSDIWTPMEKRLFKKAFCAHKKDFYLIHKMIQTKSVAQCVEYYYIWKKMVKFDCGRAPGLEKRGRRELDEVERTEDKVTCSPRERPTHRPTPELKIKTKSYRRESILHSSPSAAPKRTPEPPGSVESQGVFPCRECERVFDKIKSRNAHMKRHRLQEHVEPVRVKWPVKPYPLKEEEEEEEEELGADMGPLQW

B1: terminal deoxynucleotidyltransferase interacting factor 1 (TDIF1) (protein, UniProt Q99LB0 1-328)
chain: MGATGDTEQPRGPGGAERGGLELGDAGAAGQPVLTNPWNIMIKHRQVQRRGRRSQMTTSFTDPAISMDLLRAVLQPSINEEIQGVFNKYMKFFQKAALNVRDNVGEEVDAEQLIQEACRSCLEQAKLLFSDGEKVIPRLAHELPGIKRGRQAEEESHRGSPIPKKRKGRPPGHVLSNDRAAAGMVWKQKSCEPIRREGPKWDPARLNESTTFVLGSRANKALGMGGTRGRIYIKHPHLFKYAADPQDKHWLAEQHHMRATGGKMAYLLIEEDIRDLAASDDYRGCLDLKLEELKSFVLPSWMVEKMRKYMETLRTENEHRAAEAPPQT

Biological target: T1, ZFP541 (mouse (endogenous in testis))
Assay: co-IP

binding, binds:
HDAC2 (from UniProt P70288 1-488) (enzyme), HDAC1 (from UniProt O09106 1-482) (enzyme), B1
